According to publication PMC10342086:
These are yes or no findings as the source states them, for the method shown. Binding seen in cells or lysates may run through a third protein. Here binding means that the protein was enriched with, or labelled near, the bait; the list need not be complete.

Amino acid sequences for entries named in this document (tags omitted). A change or cut given only in a name is not applied to a line headed by its entry.
UniProt A0MNQ6: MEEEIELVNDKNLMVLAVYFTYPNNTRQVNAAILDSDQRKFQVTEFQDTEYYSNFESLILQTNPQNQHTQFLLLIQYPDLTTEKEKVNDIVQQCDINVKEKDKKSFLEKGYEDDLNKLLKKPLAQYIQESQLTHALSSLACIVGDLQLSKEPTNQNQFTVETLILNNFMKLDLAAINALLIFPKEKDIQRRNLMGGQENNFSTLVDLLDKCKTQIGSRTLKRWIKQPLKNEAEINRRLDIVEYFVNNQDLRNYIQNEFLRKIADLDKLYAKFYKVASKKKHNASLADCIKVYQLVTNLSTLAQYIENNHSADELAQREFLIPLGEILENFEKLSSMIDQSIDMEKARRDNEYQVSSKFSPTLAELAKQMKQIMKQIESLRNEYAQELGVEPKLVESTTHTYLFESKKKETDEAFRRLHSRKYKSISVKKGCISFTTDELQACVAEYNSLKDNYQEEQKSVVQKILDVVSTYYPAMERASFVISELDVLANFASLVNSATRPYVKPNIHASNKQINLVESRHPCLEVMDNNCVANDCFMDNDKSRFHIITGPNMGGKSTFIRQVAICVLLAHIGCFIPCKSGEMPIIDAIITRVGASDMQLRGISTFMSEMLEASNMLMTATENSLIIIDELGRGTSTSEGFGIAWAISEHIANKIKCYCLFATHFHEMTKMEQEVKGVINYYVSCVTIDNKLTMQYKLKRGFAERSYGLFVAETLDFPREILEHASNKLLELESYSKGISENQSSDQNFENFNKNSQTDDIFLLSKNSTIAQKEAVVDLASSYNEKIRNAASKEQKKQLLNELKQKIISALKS
UniProt I7M9I3: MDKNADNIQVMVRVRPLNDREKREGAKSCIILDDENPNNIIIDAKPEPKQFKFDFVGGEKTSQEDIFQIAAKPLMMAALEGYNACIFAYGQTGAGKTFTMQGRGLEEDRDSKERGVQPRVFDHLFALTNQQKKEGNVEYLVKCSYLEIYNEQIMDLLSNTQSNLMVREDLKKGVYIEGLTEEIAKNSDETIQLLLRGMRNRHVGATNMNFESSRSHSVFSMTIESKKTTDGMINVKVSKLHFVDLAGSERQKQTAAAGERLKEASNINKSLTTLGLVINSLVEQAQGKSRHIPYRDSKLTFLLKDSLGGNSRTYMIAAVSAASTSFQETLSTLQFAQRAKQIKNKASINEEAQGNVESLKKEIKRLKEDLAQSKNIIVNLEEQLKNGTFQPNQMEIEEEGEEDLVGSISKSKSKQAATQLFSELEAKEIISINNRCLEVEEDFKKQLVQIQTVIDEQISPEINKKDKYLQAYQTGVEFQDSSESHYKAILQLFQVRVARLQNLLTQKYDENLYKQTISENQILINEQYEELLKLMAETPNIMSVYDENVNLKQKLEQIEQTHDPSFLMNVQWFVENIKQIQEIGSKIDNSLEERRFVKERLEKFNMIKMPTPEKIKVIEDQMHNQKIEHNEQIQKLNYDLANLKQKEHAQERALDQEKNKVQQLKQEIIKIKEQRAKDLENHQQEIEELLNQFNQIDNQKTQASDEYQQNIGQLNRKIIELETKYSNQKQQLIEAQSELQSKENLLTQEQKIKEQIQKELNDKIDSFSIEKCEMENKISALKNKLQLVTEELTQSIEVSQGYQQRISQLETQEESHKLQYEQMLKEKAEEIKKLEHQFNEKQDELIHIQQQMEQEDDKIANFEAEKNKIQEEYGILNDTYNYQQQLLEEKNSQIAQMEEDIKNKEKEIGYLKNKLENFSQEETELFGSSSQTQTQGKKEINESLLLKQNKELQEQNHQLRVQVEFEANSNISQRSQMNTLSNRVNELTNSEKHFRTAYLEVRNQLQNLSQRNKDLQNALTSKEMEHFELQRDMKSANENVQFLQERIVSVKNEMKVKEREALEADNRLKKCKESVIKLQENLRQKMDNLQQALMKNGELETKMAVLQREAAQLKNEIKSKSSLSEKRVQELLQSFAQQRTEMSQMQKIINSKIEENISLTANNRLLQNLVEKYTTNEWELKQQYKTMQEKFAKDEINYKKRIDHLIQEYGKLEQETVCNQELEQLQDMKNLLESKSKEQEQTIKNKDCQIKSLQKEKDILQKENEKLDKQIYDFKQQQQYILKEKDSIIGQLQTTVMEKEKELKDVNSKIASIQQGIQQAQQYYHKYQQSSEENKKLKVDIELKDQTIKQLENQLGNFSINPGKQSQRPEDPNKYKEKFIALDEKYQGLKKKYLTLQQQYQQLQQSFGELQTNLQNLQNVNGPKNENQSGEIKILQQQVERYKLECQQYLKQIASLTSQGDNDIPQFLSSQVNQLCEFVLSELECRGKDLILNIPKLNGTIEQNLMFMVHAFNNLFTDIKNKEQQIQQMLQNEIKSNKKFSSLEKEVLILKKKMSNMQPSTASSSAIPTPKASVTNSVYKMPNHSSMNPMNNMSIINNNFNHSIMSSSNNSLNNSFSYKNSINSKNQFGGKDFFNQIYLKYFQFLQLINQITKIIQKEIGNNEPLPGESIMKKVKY
UniProt I7M403: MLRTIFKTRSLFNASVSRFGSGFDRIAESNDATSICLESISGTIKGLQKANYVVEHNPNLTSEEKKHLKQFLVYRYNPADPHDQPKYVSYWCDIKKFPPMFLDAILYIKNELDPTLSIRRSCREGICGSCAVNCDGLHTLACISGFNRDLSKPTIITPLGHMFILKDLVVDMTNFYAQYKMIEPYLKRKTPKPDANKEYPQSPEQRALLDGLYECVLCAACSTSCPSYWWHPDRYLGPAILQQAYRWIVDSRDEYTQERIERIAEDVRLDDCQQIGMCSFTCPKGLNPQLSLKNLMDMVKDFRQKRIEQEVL
UniProt I7MGE9: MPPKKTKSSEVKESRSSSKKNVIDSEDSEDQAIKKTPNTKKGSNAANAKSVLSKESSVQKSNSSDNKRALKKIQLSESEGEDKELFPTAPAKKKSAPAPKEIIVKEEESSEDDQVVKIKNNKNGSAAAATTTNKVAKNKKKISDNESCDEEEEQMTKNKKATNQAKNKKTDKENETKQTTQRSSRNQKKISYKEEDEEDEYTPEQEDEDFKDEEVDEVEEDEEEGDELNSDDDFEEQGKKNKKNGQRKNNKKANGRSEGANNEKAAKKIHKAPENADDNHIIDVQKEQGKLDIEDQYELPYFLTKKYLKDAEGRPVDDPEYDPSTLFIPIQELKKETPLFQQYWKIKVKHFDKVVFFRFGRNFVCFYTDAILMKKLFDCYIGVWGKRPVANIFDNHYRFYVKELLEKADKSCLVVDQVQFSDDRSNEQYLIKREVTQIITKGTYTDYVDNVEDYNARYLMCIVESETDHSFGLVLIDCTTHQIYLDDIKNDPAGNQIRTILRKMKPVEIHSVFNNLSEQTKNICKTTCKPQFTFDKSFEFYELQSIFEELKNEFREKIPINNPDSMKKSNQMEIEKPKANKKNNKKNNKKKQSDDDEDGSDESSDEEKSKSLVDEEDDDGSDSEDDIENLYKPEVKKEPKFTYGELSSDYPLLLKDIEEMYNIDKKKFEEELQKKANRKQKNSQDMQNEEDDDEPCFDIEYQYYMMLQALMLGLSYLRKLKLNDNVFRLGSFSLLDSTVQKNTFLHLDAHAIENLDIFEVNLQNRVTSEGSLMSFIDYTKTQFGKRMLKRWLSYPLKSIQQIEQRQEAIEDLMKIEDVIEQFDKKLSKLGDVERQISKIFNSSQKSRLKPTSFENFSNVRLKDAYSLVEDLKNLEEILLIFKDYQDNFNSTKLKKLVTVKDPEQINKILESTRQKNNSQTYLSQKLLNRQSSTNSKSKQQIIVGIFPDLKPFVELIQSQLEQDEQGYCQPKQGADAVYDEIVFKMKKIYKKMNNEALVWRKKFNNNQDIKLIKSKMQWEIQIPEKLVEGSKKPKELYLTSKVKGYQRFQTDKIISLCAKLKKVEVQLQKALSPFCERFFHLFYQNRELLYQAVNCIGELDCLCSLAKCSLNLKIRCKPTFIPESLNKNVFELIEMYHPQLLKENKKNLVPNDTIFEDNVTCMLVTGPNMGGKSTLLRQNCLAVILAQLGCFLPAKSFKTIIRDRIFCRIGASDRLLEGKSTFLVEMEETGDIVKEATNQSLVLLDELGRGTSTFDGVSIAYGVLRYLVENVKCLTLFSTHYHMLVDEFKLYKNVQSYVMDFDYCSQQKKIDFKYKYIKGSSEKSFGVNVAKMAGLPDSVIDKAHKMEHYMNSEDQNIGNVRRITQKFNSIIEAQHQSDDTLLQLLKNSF
UniProt Q23R52: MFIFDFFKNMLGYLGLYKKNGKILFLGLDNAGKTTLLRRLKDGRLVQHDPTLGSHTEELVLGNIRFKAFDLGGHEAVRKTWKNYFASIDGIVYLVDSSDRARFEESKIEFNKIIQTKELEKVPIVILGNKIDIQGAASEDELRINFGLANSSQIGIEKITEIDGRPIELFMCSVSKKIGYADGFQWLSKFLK
UniProt Q23MC5: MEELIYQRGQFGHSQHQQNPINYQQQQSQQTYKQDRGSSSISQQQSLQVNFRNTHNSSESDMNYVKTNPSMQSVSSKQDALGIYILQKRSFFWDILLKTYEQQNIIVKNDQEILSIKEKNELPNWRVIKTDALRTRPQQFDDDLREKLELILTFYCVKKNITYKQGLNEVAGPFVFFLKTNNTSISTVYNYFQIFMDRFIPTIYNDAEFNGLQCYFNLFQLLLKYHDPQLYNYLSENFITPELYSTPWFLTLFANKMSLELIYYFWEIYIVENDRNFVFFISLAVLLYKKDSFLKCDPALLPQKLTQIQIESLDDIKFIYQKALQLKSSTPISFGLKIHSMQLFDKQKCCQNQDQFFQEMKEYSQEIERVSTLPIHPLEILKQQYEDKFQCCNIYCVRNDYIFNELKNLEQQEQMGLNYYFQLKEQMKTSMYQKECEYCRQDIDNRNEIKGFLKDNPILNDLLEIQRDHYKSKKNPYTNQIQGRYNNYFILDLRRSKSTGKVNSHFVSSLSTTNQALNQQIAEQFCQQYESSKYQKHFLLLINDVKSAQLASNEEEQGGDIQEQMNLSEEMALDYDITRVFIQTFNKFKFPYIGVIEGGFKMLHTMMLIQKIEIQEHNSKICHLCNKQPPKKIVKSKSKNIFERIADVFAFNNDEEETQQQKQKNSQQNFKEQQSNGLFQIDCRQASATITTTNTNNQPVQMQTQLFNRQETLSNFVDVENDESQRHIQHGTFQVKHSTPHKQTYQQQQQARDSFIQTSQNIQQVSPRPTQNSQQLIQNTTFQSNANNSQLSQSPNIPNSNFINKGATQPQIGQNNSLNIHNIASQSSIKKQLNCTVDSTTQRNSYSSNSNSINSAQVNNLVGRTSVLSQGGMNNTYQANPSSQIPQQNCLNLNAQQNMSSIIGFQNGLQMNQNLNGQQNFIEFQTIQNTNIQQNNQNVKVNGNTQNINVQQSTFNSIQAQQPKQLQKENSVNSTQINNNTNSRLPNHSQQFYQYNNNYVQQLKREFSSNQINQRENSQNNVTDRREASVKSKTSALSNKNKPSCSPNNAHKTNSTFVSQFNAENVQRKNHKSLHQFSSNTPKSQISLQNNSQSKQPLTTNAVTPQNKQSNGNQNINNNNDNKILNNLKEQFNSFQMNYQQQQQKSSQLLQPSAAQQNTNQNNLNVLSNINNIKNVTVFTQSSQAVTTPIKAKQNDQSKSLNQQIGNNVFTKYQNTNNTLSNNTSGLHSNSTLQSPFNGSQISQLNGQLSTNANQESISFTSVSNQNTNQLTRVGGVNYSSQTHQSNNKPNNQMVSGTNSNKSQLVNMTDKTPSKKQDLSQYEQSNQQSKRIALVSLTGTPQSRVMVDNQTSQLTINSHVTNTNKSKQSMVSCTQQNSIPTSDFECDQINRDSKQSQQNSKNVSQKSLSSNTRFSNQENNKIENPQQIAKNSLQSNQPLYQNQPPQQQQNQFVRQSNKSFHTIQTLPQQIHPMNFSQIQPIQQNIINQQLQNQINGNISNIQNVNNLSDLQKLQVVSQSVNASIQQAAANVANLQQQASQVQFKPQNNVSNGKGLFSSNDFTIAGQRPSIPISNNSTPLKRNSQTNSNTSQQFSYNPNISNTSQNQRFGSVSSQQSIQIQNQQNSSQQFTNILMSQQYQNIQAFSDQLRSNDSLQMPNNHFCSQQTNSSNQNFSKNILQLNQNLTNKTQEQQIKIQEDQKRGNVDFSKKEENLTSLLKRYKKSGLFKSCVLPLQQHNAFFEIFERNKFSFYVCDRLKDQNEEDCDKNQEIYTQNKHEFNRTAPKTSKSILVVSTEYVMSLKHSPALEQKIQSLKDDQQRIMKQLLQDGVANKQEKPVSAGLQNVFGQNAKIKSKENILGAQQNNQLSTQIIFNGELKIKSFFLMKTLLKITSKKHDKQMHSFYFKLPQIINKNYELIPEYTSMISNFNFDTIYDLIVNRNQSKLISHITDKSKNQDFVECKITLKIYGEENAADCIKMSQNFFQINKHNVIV

target: Msh2-3HA (Tetrahymena thermophila) (UniProt A0MNQ6); assay: affinity purification with mass spectrometry; Msh2-3HA captured with HA antibody (Pierce HA-tag magnetic IP/Co-IP kit) from 3.5 x 10^7 cells at 3 h of conjugation; trypsin digest, LC-MS/MS, MaxQuant; wild-type lysate without HA tag as blank control; hits: iBAQ WT/iBAQ Msh2-3HA <= 0.05

Substance	binding
kinesin motor catalytic domain protein (TTHERM_00564530) (from UniProt I7M9I3)	binds
TTHERM_00622710 (from UniProt Q241B3)	binds
Dynein Heavy chain Dyh3 (TTHERM_01276420) (from UniProt Q22A67 1-4620)	binds
TTHERM_01015890 (from UniProt Q22CV2)	binds
TTHERM_00151470 (from UniProt I7MGG8)	binds
TTHERM_00723640 (from UniProt I7MFS4)	binds
Dynein Heavy chain Dyh17 (TTHERM_00850620) (from UniProt Q23R22)	binds
TTHERM_00241700 (from UniProt I7M403)	binds

Other lines, results leading:

binding	Substance
binds	TTHERM_00969600 (from UniProt Q24DL4)
binds	Msh6L3 (TTHERM_00150000) (from UniProt I7MGE9)
binds	TTHERM_00849320 (from UniProt Q23R52)
binds	TTHERM_00621340 (from UniProt Q23MC5)
